Test results as given in the RNAGym collection of RNA variant scans (doi:10.1126/science.aae0568).
Variants at the background level are over-represented here.

B1: tRNA (parent)
chain: GUUCCGUUGGCGUAAUGGUAACGCGUCUCCCUCCUAAGGAGAAGACUGCGGGUUCGAGUCCCGUACGGAACG

Variants of: B1
Test: yeast fitness relative to wild type (ratio to wild type); higher = fitter; tRNA-Arg(CCU), competitive growth, 37 C, YPD
How it was run: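 Amplicons of the tRNA-Arg(CCU) gene were sequenced, 100-nucleotide paired-end, from the start population and from each end population of a pooled yeast competition. The competition, in six parallel replicates, lasted 24 hours in YPD at 37°C. Fitness relative to wild type was calculated from changes in genotype frequencies. Genotypes had to have ≥ 100 starting reads, and estimates < 0.5 were set to 0.5.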

Q: For GUUUCGUUGGCGUAAUGGUAGCGCGUCUCCCUCCUAAGGAGAAGAAUGCGGGUUCGAGUCCCGUACGCAACG [C4U A21G C46A G68C], which yeast fitness is on record?
A: 0.544

Q: Which yeast fitness does the source give for GUUCCGUUGGCGUAAUGGUAACGAGUAUCCCUCCUAAGGAGGAGACUGCGGGUUCGAGUCCCGUACGGAACG [C24A C27A A42G] here?
A: ≤ 0.5

Q: For GUUCCGUUGGCGUAAUGGUAACGCGUCUGCCUGCUAAGGAGGAGACUACGGGUUCGAGUCCCGUACGGAACG [C29G C33G A42G G48A], which yeast fitness is on record?
A: ≤ 0.5

Q: For GUUCCGUUGGCGUAAUGGUAACGCGUUUCCCUCGUAAGGAGAAGACUGUGGGUUCGAGUCCCGUACGGAACG [C27U C34G C49U], which yeast fitness is on record?
A: ≤ 0.5

Q: With GUUCCGUUGGCGUAAUGGUAAAACGUCUCCCUUGUAAGGAGAAGACUGCGGGUUCGAGUCCCGUACGCAACG [C22A G23A C33U C34G G68C] as the variant, how does the yeast fitness read?
A: ≤ 0.5

Q: For GUUCCGUUCGCGUAAUGGUAACGCGUCUCUCUCCUAGGGAGAAGACUGCGGGUUGGAGUCCCGUACGGAACG [G9C C30U A37G C55G], which yeast fitness is on record?
A: ≤ 0.5

Q: With GUUCCGUUGGCGUAAUGGUCACGCGUCUCGCUCCUAAGGAGAAGACUGCGGGUUCGAGUCCCGUACGAAACG [A20C C30G G68A] as the variant, how does the yeast fitness read?
A: ≤ 0.5

Q: For GUUGCGUUGGCGUAAUGGUAACGCGUCUCCCUCCUAAGGAGAAGACUGGGGGUUCGACUCCCGUACGGAACG [C4G C49G G58C], which yeast fitness is on record?
A: ≤ 0.5

Q: For GUUCCGUUGGCGUAAUGGUAACGCGUCUCCCUCCUAACGAGGAGACUGCGGGUUCCAGUCCCGUACGGAACG [G38C A42G G56C], which yeast fitness is on record?
A: ≤ 0.5

Q: Which yeast fitness does the source give for GUUCCGUUGGCGUAAAGGUAACGUGUCUCCCUCAUAAGGAGAAGACUGCGGGUUCGAGUCCCGUACGGAACG [U16A C24U C34A] here?
A: 0.656

Q: Which yeast fitness does the source give for GGUCCAUUGGCGUAAUGGUAACGCGUCUCCCUCCUAAGGAGAAGACUGCGGGUUCGAGUCCCGUACCGAACG [U2G G6A G67C] here?
A: ≤ 0.5

Q: With GUUCCGUUGGCGUAAUGGUAACGCGUCUCCAUCCUAAGGAGAAGACUGCGGGUUCCAGUCCCGUACGGAACG [C31A G56C] as the variant, how does the yeast fitness read?
A: ≤ 0.5

Q: With GUUCCCCUGGCGUUCUGGUAACGCGCCUCCCUCCUAAGGAGAAGACUACGGGUUCGAGUCCCAUAUGGCACG [G6C U7C A14U A15C U26C G48A G63A C66U A69C] as the variant, how does the yeast fitness read?
A: ≤ 0.5

Q: With GUUCUGUUGGCGUAAUGGUAAAGCGAGUCCCUCCUAAGGAGAAGACUACGGGUUCGAGUCCCGUACGGAACG [C5U C22A U26A C27G G48A] as the variant, how does the yeast fitness read?
A: ≤ 0.5

Q: Which yeast fitness does the source give for GUUCCGUUGAAGUACUGGUAACGAGUCUCCCUCAUAAGGAGAAGAGUGCGGGUUCGAGUUGCGUACAGAACG [G10A C11A A15C C24A C34A C46G C60U C61G G67A] here?
A: ≤ 0.5

Q: For GUUCCGUUGGCGUAAUGGUAACGCGUGUCCCUCCUAAGGAGAAGACUGCGAGUUCGAGUCCCGUACAGAACG [C27G G51A G67A], which yeast fitness is on record?
A: ≤ 0.5

Q: For GUUCCGUUGGCGUAAUGGUAACGCGUCUCCCUCCUAAGCAGGAGACUGCGGGUUCGAGACCCGUACGGAACG [G39C A42G U59A], which yeast fitness is on record?
A: ≤ 0.5

Q: With GUUCCGUUGGCGUAAUGGUAUCGCGUCUCCCUCCUAAGGAGAAGACUGCGGGUUCGAGUCGCGUACGGGACG [A21U C61G A69G] as the variant, how does the yeast fitness read?
A: ≤ 0.5

Q: Which yeast fitness does the source give for GUUCCGUUGGCGUAAUGGUAACGCGAAACCCUCUUAAGGAGAAGACUGCGGGUUCGAGUCCCGUACGGAACG [U26A C27A U28A C34U] here?
A: ≤ 0.5

Q: Which yeast fitness does the source give for GUUCCGUUGGCGUAAUGGUGACGCGUCUCCCUCCUGAGGAGAAGACUGCGGGUACGAGUCCCGUACGGAGCG [A20G A36G U54A A70G] here?
A: ≤ 0.5

Q: For GUUCCGUUGGCAUAAUGGUAACGCGUCUCCGUCCUAAGGAGAAGGCUGCGGGUUCUAGUCCCGUACGGAACG [G12A C31G A45G G56U], which yeast fitness is on record?
A: ≤ 0.5

Q: Which yeast fitness does the source give for GUUCCGUUGGCGUAACGGUAACGCGUCUCCCUCCUAAGGAGAAGACCGCGGGUUCGAGUUCAGUACGGAACG [U16C U47C C60U C62A] here?
A: ≤ 0.5

Q: Which yeast fitness does the source give for GGUCCGUUGGCGUAAUGGUAACGCGUCUCCCUCCUAAGCAGAAGACUGGGGGUUCGUGUCCCGUACGGUACG [U2G G39C C49G A57U A69U] here?
A: ≤ 0.5

Q: For GUUCCGUUGGCGUAAUGGUAACGCGUCUCCCUCCUAAGGAGACGACUGCGGGUUCGAGUCCCGUAGGGUACG [A43C C66G A69U], which yeast fitness is on record?
A: ≤ 0.5

Q: Which yeast fitness does the source give for GUUCCGUUGGCGUAAUGGUAACGUGUCUCGCUCCUAAGGAGAAGCCUGCGGGUUCGAGUCCCGUACGGACCG [C24U C30G A45C A70C] here?
A: ≤ 0.5

Q: Which yeast fitness does the source give for GUUCCGUUGGCGUAAUGGUAACGCGUCUCCCUCCUAAGGGGAAGACUGGGGGUUCGAGGCCCGUACCGAACG [A40G C49G U59G G67C] here?
A: 0.706

Q: With GUUCCGUUGGCGAAAUGGUAACGCGUGUCCCUCGUAAGGAGAAGACUGCGGGUUCGAGUCCCGUACGGAACG [U13A C27G C34G] as the variant, how does the yeast fitness read?
A: ≤ 0.5

Q: For GUUCCGUUGGCAUAAUGGUAACGAGUCUCCCUCCUAAGGAGAAGGCUGCAGGUUCGAGUCCCGUACGGAACG [G12A C24A A45G G50A], which yeast fitness is on record?
A: ≤ 0.5

Q: For GCUCCGUUGCCGUAAUGGUAAUGCGUCCCCCUCCUAAGGAGAAGACUGCGGGUUCGAGUCCCGUACGGAACG [U2C G10C C22U U28C], which yeast fitness is on record?
A: ≤ 0.5

Q: For GUUCCGUUGGCGAAAUGGUAACGCGUAUCCCUCCUAAGGAGAAGACUGUGGGUUCGAGUUCAGUGCGGAACG [U13A C27A C49U C60U C62A A65G], which yeast fitness is on record?
A: ≤ 0.5

Q: Which yeast fitness does the source give for GUUCCAUUCGCGUGAUGGUAACGCGUCUCCCUCCUAAGGAGAAGACUGCGGGUUCGAGUCCCGUACGGAACG [G6A G9C A14G] here?
A: ≤ 0.5

Q: With GUUCCGUUGGCGUCAUGGUAACGUGUCUCCUUCCUAAGGAGAAGACUGCGGGCUCGAGUCCCGUACGCAACG [A14C C24U C31U U53C G68C] as the variant, how does the yeast fitness read?
A: ≤ 0.5

Q: With GUUCCGUUGGCGUAAUGGUAACGCGUCUCCCUCCUAAGGAGAAGACUGUGGGUUCGAAUCCCGUGCGGAACG [C49U G58A A65G] as the variant, how does the yeast fitness read?
A: 1

Q: Which yeast fitness does the source give for GUUCCGUUGGCGUAAUGGUAACGCGUCUCCCUCCUAAGGAGAACACUGCGGGUUCGAGUCGCGUCCGGACCG [G44C C61G A65C A70C] here?
A: ≤ 0.5

Q: For GAUCCGUUGGCGUAAUGGUAACCCGUCUCCCUCCUAAGGAGAAGACUGCGGGUUUGAGUCCCGUACGGAACG [U2A G23C C55U], which yeast fitness is on record?
A: ≤ 0.5

Q: Which yeast fitness does the source give for GUUACGUUGGCGGAAUGGUAACGCGUCUCUCUCCUAAGGAGAAGACUGCGGGUUCGAGUCCCGUACGGAACG [C4A U13G C30U] here?
A: ≤ 0.5

Q: For GUUCUGUUGGCGUAAUGGUAACGCGUCUCCCUACUAAGGACAAGACUGCGGGUUCGAGUCCCGUACGCAACG [C5U C33A G41C G68C], which yeast fitness is on record?
A: ≤ 0.5
